The full ranking holds about 33,000 sequences; the median of “E-score (-0.5 to 0.5)” is about -0.0059, and the highest 2% start at about 0.26. Some of the results follow.
Each sequence was assayed against T1, Cin5 (UniProt P40917) (assay: PBM E-score (8-mer binding enrichment) (E-score (-0.5 to 0.5)); higher = stronger / more preferred TF binding). Details: protein concentration: 100 nM; construct: GST-full length.
T1 sequence: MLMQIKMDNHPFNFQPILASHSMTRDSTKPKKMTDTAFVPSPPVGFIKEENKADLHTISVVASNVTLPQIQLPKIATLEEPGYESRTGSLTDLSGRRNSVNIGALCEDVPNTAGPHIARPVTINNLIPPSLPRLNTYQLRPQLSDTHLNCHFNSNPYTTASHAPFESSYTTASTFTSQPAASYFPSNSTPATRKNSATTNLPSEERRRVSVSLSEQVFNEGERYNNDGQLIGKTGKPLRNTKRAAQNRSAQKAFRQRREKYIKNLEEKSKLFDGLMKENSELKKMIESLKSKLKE
Method: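 Universal 'all 10-mer' protein binding microarrays (Agilent AMADID 015681) probed with GST-tagged S. cerevisiae TFs (full-length or DBD) made by in vitro transcription/translation (PURExpress), about 100-200 nM. Bound TF was detected with fluorescent anti-GST. Each ungapped 8-mer (which stands for itself and its reverse complement) is scored by the PBM enrichment score (E-score), a modified Wilcoxon-Mann-Whitney statistic from -0.5 to +0.5, computed with the Universal PBM Analysis Suite. Scale: above 0.35 generally sequence-specific binding.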

Row | Sequence | PBM E-score
1 | GAACATCA | 0.0424
2 | GCTCGTCC | -0.0494
3 | ATGTGTAA | 0.148
4 | CAGTGCGC | -0.205
5 | CTTGACAC | -0.156
6 | ATCCGGCC | 0.0639
7 | GCCCTATA | -0.00992
8 | TAAAAAGA | 0.101
9 | ACGTGCGC | 0.0377
10 | CAACGCCA | -0.074
11 | TTCCCAAA | -0.0338
12 | CATGCTGA | 0.181
13 | ATACGAGC | 0.0999
14 | GTTCTGTA | 0.09
15 | CATACTGG | 0.0129
16 | ACTTCAGG | -0.0578
17 | AGAACATA | 0.142
18 | ATCATACG | 0.0906
19 | AAGGAACG | -0.174
20 | ATACTGAA | 0.0502
21 | AACACCTG | 0.0544
22 | AGCCGCCG | -0.00047
23 | GCGACTCA | -0.00138
24 | GAAAATTA | 0.222
25 | GGAACAAA | 0.32

Row | Sequence | PBM E-score
26 | CAGGCTCG | -0.141
27 | GTCCCAAA | -0.166
28 | CTAACTAC | -0.0509
29 | TCACGTGA | 0.103
30 | CCGACGGA | 0.0352
31 | GTAGGACA | 0.0213
32 | CATTTGAC | -0.0297
33 | CTTGAGCA | -0.216
34 | ACGGCAAT | 0.273
35 | CCACGTCG | -0.0517
36 | AGAATCAC | -0.13
37 | ACAACGGG | 0.0841
38 | GCTTACTA | 0.388
39 | ACTCACCG | -0.0737
40 | CGACTAGA | -0.093
41 | CCAGGCTA | -0.263
42 | CGGAATCC | 0.0489
43 | CTCGTGCA | -0.122
44 | CGCGATAC | 0.0866
45 | AATCCATA | 0.194
46 | CGTAGGAC | -0.206
47 | GACACAAA | 0.175
48 | CCTTTCTA | -0.0885
49 | ACAAGAAA | 0.168
50 | ACCAGGAC | -0.0636

Row | Sequence | PBM E-score
51 | AGGCGAGA | -0.128
52 | AGAATGAG | 0.0756
53 | ACAGATCG | -0.0199
54 | AAGCCTAG | -0.0965
55 | CTGCACGC | -0.186
56 | TGAGACCA | -0.078
57 | ATCTGTTG | -0.045
58 | GCGCTATA | 0.124
59 | AGCTGCGG | -0.187
60 | CACGTTAA | -0.0144
61 | AGTCCCGG | -0.111
62 | GAAACCCA | 0.2
63 | CTTAACAA | 0.0617
64 | AAAGCTCA | -0.0849
65 | AGACAATC | 0.112
66 | GAGCGGGC | -0.176
67 | ATGGGCAC | 0.057
68 | AGGATGAA | -0.0521
69 | GCGCTCAC | 0.0267
70 | ACAATGGG | 0.136
71 | AGTATAAA | 0.282
72 | CGTCTGTA | -0.163
73 | CCCGCGTA | 0.0352
74 | CTCGGTAC | -0.272
75 | TACCGGAA | 0.0588

Row | Sequence | PBM E-score
76 | CCCGACAA | 0.131
77 | CTAGGACC | -0.276
78 | AGTAGAGA | 0.00616
79 | GGTGTCCA | -0.0656
80 | ACTGAAAG | 0.0278
81 | CCCTTGGA | -0.101
82 | CCAGCGTA | -0.15
83 | GCGTTTCA | -0.0379
84 | CGTTACAC | 0.0126
85 | ATTACACC | 0.209
86 | CTACGCAC | -0.185
87 | CATCTGAC | -0.128
88 | CTACTTAC | 0.00104
89 | GCCGAACC | -0.132
90 | AACAATTA | 0.295
91 | GGTGGGAC | -0.313
92 | AATTCTGT | 0.0415
93 | AACTATCC | -0.0479
94 | AGCTATGC | -0.158
95 | CAATGGCA | 0.0879
96 | GAGTAGTA | 0.118
97 | CCAGTACC | -0.0552
98 | CCTACCCG | -0.066
99 | CACATAGC | -0.142
100 | AGCCGGGG | -0.224

Row | Sequence | PBM E-score
101 | ATGGCGCA | 0.146
102 | CGATCGAA | 0.189
103 | AATCCGCG | 0.0184
104 | ACTATTTA | 0.0665
105 | TATTTGCA | 0.162
106 | TGTCCACA | 0.0175
107 | AAGTATTG | 0.165
108 | GGAGCCGA | -0.282
109 | CCCAGTTC | 0.175
110 | GTGTTTGA | 0.157
111 | ACACTGAT | 0.0458
112 | GCTCCGAA | 0.0922
113 | AGTATTCC | 0.225
114 | CAGCACTA | -0.0379
115 | AATCTTCA | 0.199
116 | CGACCCAC | -0.0923
117 | AGGAAGCC | -0.151
118 | AAGCATTG | 0.0496
119 | GAACGGAC | -0.141
120 | AGGAGATC | -0.021
121 | AGCCTTAA | -0.0564
122 | AAGGGTAC | -0.137
123 | AACAAGTG | -0.0526
124 | GTGGAGCA | -0.212
125 | GAATTCAA | 0.106

Row | Sequence | PBM E-score
126 | CCGAGGTA | 0.00392
127 | GGCATCCA | -0.172
128 | GGTTAGCA | -0.0843
129 | AAAAATGC | 0.0727
130 | GAAGCTTC | -0.0695
131 | CTTGCCGC | -0.212
132 | CTATTCGA | 0.0762
133 | AGATGCAC | -0.0611
134 | CAAAGTCA | 0.107
135 | GGCCTAAC | -0.0895
136 | CAACTGCC | 0.0563
137 | GCTAGGGA | -0.0341
138 | ATCCACCC | 0.126
139 | TCAGTGAA | 0.0711
140 | ACCTGGCG | -0.28
141 | CCATGATC | -0.117
142 | AACCTATT | 0.148
143 | AGGGAACG | -0.167
144 | ACTGATTG | 0.112
145 | CCCTAAGA | -0.244
146 | CCAAGACC | -0.195
147 | CTTTTTCA | -0.0923
148 | ATCGTTCA | 0.0852
149 | AGATATAA | 0.148
150 | CTAAAGAC | -0.147

Taken from above:
Entry for AACCTATT under PBM E-score: 0.148
Entry for CCATGATC under PBM E-score: -0.117
Entry for CTAAAGAC under PBM E-score: -0.147
Entry for CTTGCCGC under PBM E-score: -0.212
Entry for GAAGCTTC under PBM E-score: -0.0695

(continued)

Row | Sequence | PBM E-score
151 | AGCTATAA | 0.00654
152 | CGGGGAAG | -0.0981
153 | ACGTGAAG | -0.142
154 | ATGAGCAC | -0.0764
155 | CCACGTAC | -0.0849
156 | CAGCGAGA | 0.0156
157 | AAAAATCC | 0.0745
158 | GATCCAGC | 0.0233
159 | AAAGAAAC | 0.046
160 | ATTCTGGC | -0.123
161 | CTCAAATC | 0.0748
162 | CCACGGCC | -0.3
163 | AACCAAAG | 0.0345
164 | AATGTGGG | 0.12
165 | ACTGGCCC | 0.0258
166 | CCGGGGTA | -0.0599
167 | CCAGGGGG | -0.433
168 | GCGAACAA | 0.224
169 | GCGTCTCA | -0.224
170 | AACAGGGC | 0.0391
171 | ACCGCCCA | -0.142
172 | AAGAGACA | 0.169

Another view of some results above.
Row	Sequence	PBM E-score
168	GCGAACAA	0.224
169	GCGTCTCA	-0.224
170	AACAGGGC	0.0391
171	ACCGCCCA	-0.142
